Measured values published in patent publication US20250361284A1, “TRANSPOSASE FUSION PROTEINS FOR USE IN CELL AND GENE THERAPY” (JULIUS-MAXIMILIANS-UNIVERSITÄT WÜRZBURG, priority 2022, published 2025).

What was measured:
[1] = system: dd-SB100X fusion transposase; assay: Immunoblot: time and dose-dependent regulation of dd-SB100X expression by TMP in human T cells; format: cell-based
Lenti-X 293T cells = assay: Immunoblot of SB fusion-transposase protein expression and regulation by small molecules in Lenti-X 293T cells; format: cell-based, human; settings: 24 hours
HeLa cells = assay: Immunoblot of dd-SB100X fusion-transposase expression in HeLa cells; format: cell-based, human

B1: dd-SB100X: ecDHFR destabilizing domain fused via linker to N-terminus of SB100X transposase; SEQ ID NO: 2 (protein)
chain: MISLIAALAVDYVIGMENAMPWNLPADLAWFKRNTLNKPVIMGRHTWESIGRPLPGRKNIILSSQPSTDDRVTWVKSVDEAIAACGDVPEIMVIGGGRVIEQFLPKAQKLYLTHIDAEVEGDTHFPDYEPDDWESVFSEFHDADAQNSHSYCFEILERKLGGGAPAVGGGPKMGKSKEISQDLRKRIVDLHKSGSSLGAISKRLAVPRSSVQTIVRKYKHHGTTQPSYRSGRRRVLSPRDERTLVRKVQINPRTTAKDLVKMLEETGTKVSISTVKRVLYRHNLKGHSARKKPLLQNRHKKARLRFATAHGDKDRTFWRNVLWSDETKIELFGHNDHRYVWRKKGEACKPKNTIPTVKHGGGSIMLWGCFAAGGTGALHKIDGIMDAVQYVDILKQHLKTSVRKLKLGRKWVFQHDNDPKHTSKVVAKWLKDNKVKVLEWPSQSPDLNPIENLWAELKKRVRARRPTNLTQLHQLCQEEWAKIHPNYCGKLVEGYPKRLTQVKQFKGNATKY
modifications: misc_feature 1..1539 ecDHFR-SB100X
transposase protein (immunoblot) at 7 days post nucleofection ([1]; 7 days post nucleofection, CD4+ and CD8+ T cells): completely free of transposase protein | fusion-transposase protein level (immunoblot) ([1]; TMP 1000 nM for 24 hours, CD4+ & CD8+ T cells): high amount of fusion-transposase protein | fusion-transposase protein level (immunoblot) ([1]; absence of TMP (Off state)): rapidly subjected to degradation; also recorded: reduced | fusion-transposase protein level (immunoblot) (Lenti-X 293T cells; absence of TMP (DMSO control)): rapidly degraded | fusion-transposase protein level (immunoblot) (Lenti-X 293T cells; presence of trimethoprim 10 nM to 1000 nM): stabilized | fusion-transposase protein (immunoblot) (HeLa cells; absence of TMP): no residual fusion transposase protein was detectable after day 2 | fusion-transposase protein (immunoblot) (HeLa cells; presence of TMP, days 1-3 after transfection): detected

Entries after “also recorded” stand apart in the source; their conditions may differ.
